BindingDB's records for doi:10.1046/j.1471-4159.1996.66010047.x (University of Washington, 1996)

Sequences of proteins named here, by UniProt entry; tags and fusion partners are left off.
UniProt P50406, whole entry: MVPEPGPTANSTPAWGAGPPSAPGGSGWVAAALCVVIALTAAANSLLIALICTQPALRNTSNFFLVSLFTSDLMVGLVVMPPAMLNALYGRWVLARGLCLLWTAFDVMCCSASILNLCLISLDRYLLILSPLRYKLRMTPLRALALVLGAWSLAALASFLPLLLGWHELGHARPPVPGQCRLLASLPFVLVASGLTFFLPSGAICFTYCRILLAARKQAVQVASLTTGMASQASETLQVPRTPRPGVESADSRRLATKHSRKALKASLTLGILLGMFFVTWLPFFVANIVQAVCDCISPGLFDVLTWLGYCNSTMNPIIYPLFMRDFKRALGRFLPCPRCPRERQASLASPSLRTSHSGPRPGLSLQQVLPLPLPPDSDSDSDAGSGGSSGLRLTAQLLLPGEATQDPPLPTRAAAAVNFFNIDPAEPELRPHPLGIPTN

Biological target: 5-hydroxytryptamine receptor 6 (Homo sapiens, UniProt P50406)

Ki: 33 nM
SMILES: OCCOCCN1CCN(C2=Nc3ccccc3Sc3ccccc32)CC1 [2-[2-(4-dibenzo[b,f][1,4]thiazepin-11-ylpiperazin-1-yl)ethoxy]ethanol]
